# US20190062752
# By UniProt entry, the sequences of proteins in these tests, tags left out.
# UniProt Q00899, whole entry: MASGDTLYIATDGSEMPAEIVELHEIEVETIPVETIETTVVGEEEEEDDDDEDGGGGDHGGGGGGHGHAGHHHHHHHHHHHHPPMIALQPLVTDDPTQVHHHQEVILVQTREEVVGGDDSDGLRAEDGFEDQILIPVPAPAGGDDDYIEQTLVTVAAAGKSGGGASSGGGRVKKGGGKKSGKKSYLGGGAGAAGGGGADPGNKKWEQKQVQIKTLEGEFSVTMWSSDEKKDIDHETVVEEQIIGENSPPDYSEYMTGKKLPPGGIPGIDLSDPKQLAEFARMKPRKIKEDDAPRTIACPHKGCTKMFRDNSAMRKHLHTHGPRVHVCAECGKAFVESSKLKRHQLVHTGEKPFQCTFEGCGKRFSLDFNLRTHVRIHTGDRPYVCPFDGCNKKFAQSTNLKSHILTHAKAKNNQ
# Key:
# Assay in all cases: EMSA
# CTCF (Mus musculus) = molecular target: T1, CTCF (Mus musculus) (UniProt Q61164); details: ESC nuclear extract, antibody supershift; protein in an extract; label: 32P
# T1 sequence (looked up, limits assumed): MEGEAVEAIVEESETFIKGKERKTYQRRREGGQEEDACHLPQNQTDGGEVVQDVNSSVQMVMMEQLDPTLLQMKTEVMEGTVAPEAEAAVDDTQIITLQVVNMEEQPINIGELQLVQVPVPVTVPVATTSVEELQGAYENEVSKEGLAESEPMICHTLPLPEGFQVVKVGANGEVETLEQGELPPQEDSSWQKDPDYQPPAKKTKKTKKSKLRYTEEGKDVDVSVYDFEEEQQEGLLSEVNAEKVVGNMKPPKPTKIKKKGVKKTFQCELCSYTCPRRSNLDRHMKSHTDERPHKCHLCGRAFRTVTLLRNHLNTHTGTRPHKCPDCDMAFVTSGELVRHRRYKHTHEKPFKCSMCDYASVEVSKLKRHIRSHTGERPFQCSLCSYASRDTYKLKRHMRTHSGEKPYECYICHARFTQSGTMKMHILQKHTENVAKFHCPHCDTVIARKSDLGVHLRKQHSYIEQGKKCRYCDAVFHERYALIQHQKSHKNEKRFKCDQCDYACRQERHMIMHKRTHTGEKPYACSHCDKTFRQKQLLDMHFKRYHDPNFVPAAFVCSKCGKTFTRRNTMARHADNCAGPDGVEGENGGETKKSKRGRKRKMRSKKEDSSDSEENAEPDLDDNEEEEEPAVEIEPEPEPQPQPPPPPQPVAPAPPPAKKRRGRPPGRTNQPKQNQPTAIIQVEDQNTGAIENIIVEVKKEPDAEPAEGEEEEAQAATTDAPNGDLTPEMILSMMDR
# [1] = molecular target: T2, Ronin (Thap11) (Mus musculus) (UniProt Q9JJD0); details: ESC nuclear extract, antibody supershift; protein in an extract; label: 32P
# T2 sequence (looked up, limits assumed): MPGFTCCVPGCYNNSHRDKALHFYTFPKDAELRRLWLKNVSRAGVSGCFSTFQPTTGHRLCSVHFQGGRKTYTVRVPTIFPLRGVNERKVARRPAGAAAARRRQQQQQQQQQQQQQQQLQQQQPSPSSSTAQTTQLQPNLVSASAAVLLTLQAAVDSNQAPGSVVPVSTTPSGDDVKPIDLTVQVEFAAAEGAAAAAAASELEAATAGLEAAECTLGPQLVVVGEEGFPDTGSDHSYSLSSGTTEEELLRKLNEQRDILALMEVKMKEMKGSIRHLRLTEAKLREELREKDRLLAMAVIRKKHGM
# [2] = molecular target: YY1 (endogenous, ESC nuclear extract) (Mus musculus) (UniProt Q00899); details: nuclear extract; YY1 antibody supershift; protein in an extract; label: 32P
Sequence,binding result (CTCF (Mus musculus)),binding result [1],binding result [2]
CUCUUCUCUCUUAAAAUGGCUGCCUGUCUG [Arid1a promoter RNA A],binds,binds,–
CTCTTCTCTCTTAAAATGGCTGCCTGTCTG (double strand) [Arid1a promoter DNA with YY1 motif],–,–,binds
TCGCTCCCCGGCCATCTTGGCGGCTGGTGT (double strand) [Rpl30 promoter DNA with YY1 motif],–,–,binds

# Where cells or extracts were used, other partners may take part. For some of these results: Where a protein sequence is shown, tags need not be part of it.
